In article PMC8001760:
These are yes or no findings as the source states them, for the method shown. Binding seen in cells or lysates may run through a third protein. Binding calls can cover weak binding; strength is not graded here. Where a sequence is shown, tags or fusion partners need not be part of it.

Molecular target: T1, Flag-mouse lipin-2 (mouse) (UniProt Q99PI5)
T1 sequence: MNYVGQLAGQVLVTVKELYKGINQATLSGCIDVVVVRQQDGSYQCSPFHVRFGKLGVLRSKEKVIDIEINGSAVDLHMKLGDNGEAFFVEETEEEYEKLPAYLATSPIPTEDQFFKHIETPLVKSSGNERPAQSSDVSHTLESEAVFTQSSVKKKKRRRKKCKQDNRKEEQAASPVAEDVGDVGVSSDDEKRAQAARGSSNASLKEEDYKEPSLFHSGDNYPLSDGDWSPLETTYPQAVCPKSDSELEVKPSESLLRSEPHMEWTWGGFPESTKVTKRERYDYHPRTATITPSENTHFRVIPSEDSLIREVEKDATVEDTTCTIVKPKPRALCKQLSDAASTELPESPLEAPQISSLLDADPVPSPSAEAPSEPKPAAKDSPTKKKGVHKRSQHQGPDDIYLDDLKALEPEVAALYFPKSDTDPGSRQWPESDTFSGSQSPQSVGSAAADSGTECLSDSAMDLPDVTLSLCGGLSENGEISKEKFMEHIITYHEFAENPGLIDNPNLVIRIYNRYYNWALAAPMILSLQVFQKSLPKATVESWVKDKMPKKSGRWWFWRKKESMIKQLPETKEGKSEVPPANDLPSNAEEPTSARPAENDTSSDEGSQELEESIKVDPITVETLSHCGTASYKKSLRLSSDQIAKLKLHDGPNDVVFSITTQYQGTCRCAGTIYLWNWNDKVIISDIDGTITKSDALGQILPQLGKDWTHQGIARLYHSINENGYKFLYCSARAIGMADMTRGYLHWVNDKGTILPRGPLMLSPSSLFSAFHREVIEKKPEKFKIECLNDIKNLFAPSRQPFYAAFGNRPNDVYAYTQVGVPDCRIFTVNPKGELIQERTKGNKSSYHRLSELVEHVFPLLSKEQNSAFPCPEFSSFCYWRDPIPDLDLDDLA
Experiment: co-IP; 293T cells co-transfected with Flag- and HA-tagged plasmids; anti-HA or anti-Flag beads, NP-40 lysis buffer (50 mM Tris-Cl pH 7.5, 120 mM NaCl, 0.5% NP-40), 4 °C, 4 h; immunoblot

Question: Which binding does the source give for HA-NFATc1 here?
Answer: Its binding is “binds”.
